PubChem BioAssay AID652243 | Drosophila RNAi Screening Center | 2013
The screen tested about 24,000 reagents; shown is an unselected part of those that have a named target and a result. Over the whole deposit, 246 (1%) were called active. 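Plates not normalised; calls are printed but the firefly/Renilla ratio behind them is not deposited; fold cut for lowering reported inconsistently.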 The raw values are shown without normalisation. The numbers tell different reagents against one gene apart. The record does not give: the amount of reagent.

Aim: 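Knock-downs that decrease or increase androgen receptor reporter signal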 (primary screen)
Cells: Drosophila S2R+ cells
Reagent: long dsRNA against Drosophila genes
Duration: 72 h (48 h, then 24 h hormone)
Conditions: synthetic androgen R1881 at 10 nM for 24 h
Detection: 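Firefly light from an androgen-responsive reporter and Renilla control light per well, raw and unnormalised, for each of two replicates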
Reading the numbers: firefly reporter light: higher = more light from androgen-responsive reporter; Renilla control light: higher = more constitutive control signal (cell number, transfection)
Active means: 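Across duplicate plates, a knock-down whose log firefly/Renilla ratio shifted a set fold down or up from the GFP/LacZ control mean was a hit; the downward cut appears as both 1.5 and 3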
Calls: active = hit: reporter lowered or raised; inactive = no hit

gene | reagent | firefly reporter light, replicate 1 | firefly reporter light, replicate 2 | Renilla control light, replicate 1 | Renilla control light, replicate 2 | Call
CG7173 | 1 | 9.57e5 | 1.08e6 | 1.37e6 | 1.39e6 | inactive
CG7173 | 2 | 3.31e5 | 5.76e5 | 5.34e5 | 5.34e5 | inactive
CG1103 | 1 | 1.00e6 | 7.85e5 | 1.26e6 | 1.02e6 | inactive
Idi | 1 | 75445 | 1.48e5 | 7.95e5 | 7.55e5 | inactive
CR10991 | 1 | 78826 | 1.04e5 | 2.60e6 | 2.69e6 | inactive
CG2493 | 1 | 3.13e5 | 1.44e6 | 9.70e5 | 1.68e6 | inactive
Ugt49C1 | 1 | 2.24e5 | 2.65e5 | 1.66e6 | 1.60e6 | inactive
Ugt49C1 | 2 | 2.42e5 | 2.42e5 | 7.24e5 | 7.21e5 | inactive
CG8209 | 1 | 3.34e5 | 2.19e5 | 4.41e6 | 2.77e6 | inactive
CG8209 | 2 | 8.92e5 | 1.20e6 | 1.32e6 | 1.80e6 | inactive
CG13471 | 1 | 2.16e5 | 2.17e5 | 2.21e6 | 2.09e6 | inactive
Ars2 | 1 | 1.09e6 | 1.06e6 | 3.02e6 | 2.95e6 | inactive
ato | 1 | 1.17e5 | 1.54e5 | 3.38e6 | 2.97e6 | inactive
stac | 1 | 88137 | 81624 | 1.53e5 | 2.07e5 | inactive
stac | 2 | 1.57e5 | 2.12e5 | 1.65e6 | 1.60e6 | inactive
stac | 3 | 4.44e5 | 4.33e5 | 1.46e6 | 1.07e6 | inactive
stac | 4 | 3.81e5 | 4.65e5 | 9.26e5 | 1.50e6 | inactive
CG14835 | 1 | 1.10e5 | 1.04e5 | 1.23e6 | 1.64e6 | inactive
Irc | 1 | 52096 | 75060 | 2.84e5 | 4.06e5 | inactive
Irc | 2 | 4.40e5 | 4.47e5 | 1.30e6 | 1.28e6 | inactive
wcy | 1 | 46623 | 73783 | 4.78e5 | 4.73e5 | inactive
wcy | 2 | 2.58e5 | 1.71e5 | 4.92e5 | 2.80e5 | inactive
CG11279 | 1 | 3.16e5 | 3.26e5 | 2.78e6 | 2.46e6 | inactive
CG34180 | 1 | 7.80e5 | 7.65e5 | 1.95e6 | 2.72e6 | inactive
Regnase-1 | 1 | 48106 | 70181 | 5.70e5 | 5.09e5 | inactive
Tim23 | 1 | 4.95e5 | 5.66e5 | 4.10e6 | 4.00e6 | inactive
CG13481 | 1 | 1.28e5 | 89371 | 1.41e6 | 1.19e6 | inactive
CG13481 | 2 | 4.84e5 | 5.16e5 | 1.06e6 | 1.06e6 | inactive
CG32055 | 1 | 1.36e6 | 1.01e6 | 2.34e6 | 2.40e6 | inactive
CG7860 | 1 | 45639 | 72133 | 5.48e5 | 5.20e5 | inactive
CG17111 | 1 | 1.76e5 | 1.77e5 | 2.62e6 | 2.40e6 | inactive
CG17111 | 2 | 2.15e5 | 2.60e5 | 4.08e5 | 4.89e5 | inactive
alpha-Est10 | 1 | 1.10e5 | 1.44e5 | 1.28e6 | 1.29e6 | inactive
alpha-Est10 | 2 | 1.08e6 | 8.83e5 | 1.01e6 | 8.50e5 | inactive
ms(3)76Ba | 1 | 2.52e5 | 1.31e5 | 2.48e6 | 1.41e6 | inactive
Zip88E | 1 | 1.44e5 | 1.48e5 | 2.42e6 | 2.69e6 | inactive
Zip88E | 2 | 6.35e5 | 6.92e5 | 6.85e5 | 4.84e5 | inactive
CG13676 | 1 | 2.79e5 | 1.81e5 | 2.22e6 | 1.68e6 | inactive
CG11617 | 1 | 32533 | 35420 | 2.46e5 | 3.06e5 | inactive
CG11617 | 2 | 2.73e5 | 2.65e5 | 1.75e6 | 2.00e6 | inactive
CG11617 | 3 | 4.29e5 | 4.52e5 | 1.18e6 | 1.60e6 | inactive
CG18367 | 1 | 7.86e5 | 9.02e5 | 2.04e6 | 1.89e6 | inactive
CG18367 | 2 | 6.56e5 | 1.32e6 | 1.05e6 | 2.17e6 | inactive
Sumo | 1 | 1.31e6 | 1.60e6 | 1.70e6 | 1.96e6 | inactive
Trs23 | 1 | 2.08e5 | 1.44e5 | 1.42e6 | 1.63e6 | inactive
Trs23 | 2 | 8.46e5 | 7.78e5 | 1.39e6 | 1.46e6 | inactive
Gr92a | 1 | 1.24e6 | 9.35e5 | 2.44e6 | 1.82e6 | inactive
Pkc98E | 1 | 89220 | 82433 | 6.99e5 | 4.50e5 | inactive
Pkc98E | 2 | 5.52e5 | 7.09e5 | 1.25e6 | 1.34e6 | active
Pkc98E | 3 | – | – | – | – | inactive
Dph4 | 1 | 74490 | 58128 | 1.14e6 | 8.71e5 | inactive
Sfxn2 | 1 | 2.58e5 | 1.99e5 | 1.81e6 | 1.96e6 | inactive
Mlp84B | 1 | 37250 | 52271 | 1.32e6 | 1.19e6 | inactive
ktub | 1 | 8.65e5 | 9.82e5 | 1.98e6 | 1.90e6 | inactive
CG3592 | 1 | 1.49e5 | 2.05e5 | 2.11e6 | 1.90e6 | inactive
CG13482 | 1 | 7.93e5 | 6.63e5 | 9.38e5 | 1.24e6 | inactive
CG13482 | 2 | 9.50e5 | 1.35e6 | 1.01e6 | 1.09e6 | inactive
Daao1 | 1 | 2.46e5 | 1.41e5 | 1.34e6 | 7.20e5 | inactive
